# Results from patent US20200109163A1, “CARBONATED BEVERAGE AND METHOD FOR CARBONATION ENHANCEMENT” (INTERNATIONAL FLAVORS & FRAGRANCES INC., priority 2018, published 2020).
# At least one structure is not confirmed: it was looked up by name or label, or the drawing left a doubt.
# Assay: Carbonation effect of structural analogs in lime-flavored carbonated water, trained panel
# Assay type: in vivo
# Experimental: Selected structural analogs of sitosterol were tested for their ability to enhance the carbonation effect of a carbonated beverage. The analogs were used in amounts of 400 ppb and 200 ppb to 5 ppm. The sensory evaluation was carried by a trained panel that tasted each of the compounds in a lime-flavored carbonated water (Vintage seltzer water). The intensity of carbonation effect was rated and compared to other samples (Table 3)
# [1] = 200 ppb in lime-flavored carbonated water (Vintage seltzer water)
Compound,Carbonation Effect [1],Carbonation Effect (400 ppb in lime-flavored carbonated water (Vintage seltzer water)),Carbonation Effect (200 ppb-5 ppm in lime-flavored carbonated water (Vintage seltzer water))
C[C@H](CCC(=O)O)[C@H]1CC[C@H]2[C@@H]3[C@@H](O)C[C@@H]4C[C@H](O)CC[C@]4(C)[C@H]3CC[C@]12C [Ursodeoxycholic acid],"200 ppb: Foamy, fills up whole mouth, some",,
C[C@H](CCC(=O)O)[C@H]1CC[C@H]2[C@@H]3CC[C@@H]4C[C@H](O)CC[C@]4(C)[C@H]3CC[C@]12C [Lithocholic acid],"200 ppb: More upfront carbonation, slightly","400 ppb: Works, foamy at the end, sharpness,",
C=C(C)[C@@H]1CC[C@]2(C(=O)O)CC[C@]3(C)[C@H](CC[C@@H]4[C@@]5(C)CC[C@H](O)C(C)(C)[C@@H]5CC[C@]43C)[C@@H]12 [Betulinic acid],"200 ppb: Cooling, almost like menthol,",,
C[C@H](CCC(=O)O)[C@H]1CC[C@H]2[C@@H]3CC[C@@H]4C[C@H](O)CC[C@]4(C)[C@H]3C[C@H](O)[C@]12C [Deoxycholic acid],,,"200 ppb-5 ppm: Works, makes bubbles more"
